The data set deals with KLF1 (EKLF) (UniProt P46099). Kind of data set: EMSA. The conditions noted are these: COS-7 nuclear extract, 6% native PAGE in TBE (45 mM Tris, 45 mM boric acid, 1 mM EDTA), 4 C, 250 V, 1 h 40 min, binding buffer not given, protein in a lysate after overexpression, label: 32P on sense strand 5' end.

Chains of the proteins cited; added tags and fusions are not shown. Lines headed by an entry give the natural chain unless they say otherwise; changes in a name come on top.
UniProt P46099: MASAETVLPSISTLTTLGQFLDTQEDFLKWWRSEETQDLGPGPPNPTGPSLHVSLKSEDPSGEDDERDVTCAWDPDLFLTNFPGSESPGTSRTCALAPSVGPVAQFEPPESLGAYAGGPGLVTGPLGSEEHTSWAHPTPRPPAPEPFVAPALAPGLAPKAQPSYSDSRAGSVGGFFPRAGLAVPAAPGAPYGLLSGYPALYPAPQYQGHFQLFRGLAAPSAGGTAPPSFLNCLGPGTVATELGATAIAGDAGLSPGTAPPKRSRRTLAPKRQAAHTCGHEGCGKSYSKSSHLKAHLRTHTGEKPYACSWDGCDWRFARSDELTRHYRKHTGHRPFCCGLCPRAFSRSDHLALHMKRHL

The exact form of at least one protein or probe is not confirmed. At least one result comes from cells or an extract, where the contact may be indirect. No signal at the amounts used counts as a negative. At least one verdict was read from the data and is not stated in words by the source.

As to “GGCCAGCCCCGCCTTGACCAATA (double strand) [HBG2 -132 to -110 -123T>C/-124T>C]”, the binding result (modest binding, supershift with anti-KLF1) is “binds”.

As to “TAGAGCCACACCCTGGTAAG (double strand) [Hbbt1 CACCC (KLF1 positive control)]”, the binding result (positive control) was “binds”.

Turning to “GGCCAGCCTTGCCTTGACCAATA (double strand) [HBG2 -132 to -110 WT]”, the binding result is on record as “no binding”.

For the origin of these results see PMC8865852.
